The results in this text go back to article PMC3189947.

Chains of the proteins cited; added tags and fusions are not shown. Residues count along the entry.
UniProt Q14160, residues 1100-1194: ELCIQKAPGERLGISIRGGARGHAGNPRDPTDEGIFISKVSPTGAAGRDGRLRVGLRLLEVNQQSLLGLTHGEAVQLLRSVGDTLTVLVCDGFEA
UniProt Q8TEW0, residues 590-677: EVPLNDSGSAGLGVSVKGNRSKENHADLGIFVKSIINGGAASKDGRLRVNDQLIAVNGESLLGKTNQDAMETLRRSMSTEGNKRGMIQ
UniProt Q14CM0, residues 78-155: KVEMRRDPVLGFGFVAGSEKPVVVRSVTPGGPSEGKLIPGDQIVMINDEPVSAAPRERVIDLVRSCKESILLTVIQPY
UniProt P78352, residues 313-393: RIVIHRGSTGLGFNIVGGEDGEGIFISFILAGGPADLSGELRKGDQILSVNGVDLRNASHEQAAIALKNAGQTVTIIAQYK
UniProt P46108, residues 235-296: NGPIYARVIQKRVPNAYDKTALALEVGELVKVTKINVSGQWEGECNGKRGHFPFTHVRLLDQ
UniProt Q14155, residues 184-243: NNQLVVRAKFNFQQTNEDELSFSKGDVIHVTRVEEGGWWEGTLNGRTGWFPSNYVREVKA
UniProt Q92968, residues 272-336: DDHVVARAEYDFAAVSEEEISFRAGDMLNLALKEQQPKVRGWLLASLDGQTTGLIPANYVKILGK
UniProt Q14247, residues 492-550: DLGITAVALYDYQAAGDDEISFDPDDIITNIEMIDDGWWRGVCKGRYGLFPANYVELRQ
UniProt Q92783, residues 210-269: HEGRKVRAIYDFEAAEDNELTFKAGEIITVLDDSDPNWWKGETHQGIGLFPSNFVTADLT
UniProt Q9GZV1: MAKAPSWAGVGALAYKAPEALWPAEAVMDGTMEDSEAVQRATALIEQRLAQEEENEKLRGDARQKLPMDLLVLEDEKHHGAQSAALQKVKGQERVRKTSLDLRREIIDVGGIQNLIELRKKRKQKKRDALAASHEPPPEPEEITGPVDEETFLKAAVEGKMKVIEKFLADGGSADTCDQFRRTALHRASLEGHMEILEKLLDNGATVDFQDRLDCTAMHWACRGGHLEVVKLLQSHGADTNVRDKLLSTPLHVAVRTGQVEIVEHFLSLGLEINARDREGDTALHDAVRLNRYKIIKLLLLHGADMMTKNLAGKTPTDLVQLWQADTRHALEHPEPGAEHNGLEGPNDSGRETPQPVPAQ

No constants are given. Whether binding was seen depends on the method and setting. Some entries that bind do so weakly or less than the wild type. For part of these data: Sequences can lack the tags named with a protein.

Test [1] addresses SCRIB1-D4, Scribble domain 4 (GST-PDZ, PDZ array III) (UniProt Q14160). Briefly: peptide or protein array; PDZ arrays I-IV (Panomics/Affymetrix), GST-PDZ proteins spotted in duplicate on membranes, probed with His-tagged Ankrd2 (15 ug/ml), developed by ECL; both purified.
For test [2], the target named is T1, SNB1, Beta-1-syntrophin (GST-PDZ, PDZ array IV) (UniProt Q13884).
T1 sequence: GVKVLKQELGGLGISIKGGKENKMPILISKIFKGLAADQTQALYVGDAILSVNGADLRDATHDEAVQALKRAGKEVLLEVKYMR
The test is described as above.

Test [3] has as its target PARD-3, partitioning-defective 3 homolog, domain 3 (GST-PDZ, PDZ array III) (UniProt Q8TEW0). Described as above.
For test [4], the target named is T2, hCLIM1, PDZ and LIM domain protein 1 (GST-PDZ, PDZ array I) (UniProt O00151).
T2 sequence: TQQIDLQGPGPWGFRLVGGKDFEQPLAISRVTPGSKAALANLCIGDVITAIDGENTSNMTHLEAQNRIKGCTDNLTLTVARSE
Described as above.

The target of test [5] is T3, MUPP1-D6, domain 6 of the multiple PDZ domain protein (GST-PDZ, PDZ array IV) (UniProt O75970).
T3 sequence: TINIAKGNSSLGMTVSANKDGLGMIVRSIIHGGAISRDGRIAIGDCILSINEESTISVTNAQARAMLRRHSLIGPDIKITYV
Described as above.

Test [6] has as its target KIAA0316, FERM and PDZ domain containing 4 (GST-PDZ, PDZ array II) (UniProt Q14CM0). Described as above.
Test [7] addresses Dlg4-D3, Discs large homolog 4, domain 3 (GST-PDZ, PDZ array I) (UniProt P78352). The test is described as above.
In test [8] the target is T4, DLG5-D1, Discs large homolog 5, domain 1 (GST-PDZ, PDZ array IV) (UniProt Q8TDM6).
T4 sequence: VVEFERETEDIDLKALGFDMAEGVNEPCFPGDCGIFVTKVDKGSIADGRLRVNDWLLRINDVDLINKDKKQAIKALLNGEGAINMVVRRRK
Described as above.

Test [9] deals with T5, SDB2-D2, domain 2 of syntenin-2 beta (GST-PDZ, PDZ array III) (UniProt Q9H190).
T5 sequence: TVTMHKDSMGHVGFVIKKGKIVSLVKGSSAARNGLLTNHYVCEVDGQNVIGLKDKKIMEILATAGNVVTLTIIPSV
Described as above.

The target of test [10] is T6, MUPP1-D13, domain 13 of the multiple PDZ domain protein (GST-PDZ, PDZ array IV) (UniProt O75970).
T6 sequence: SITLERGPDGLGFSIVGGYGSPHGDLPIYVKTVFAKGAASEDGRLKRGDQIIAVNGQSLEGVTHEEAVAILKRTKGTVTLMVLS
The test is described as above.

Test [11] deals with T7, RIM2, regulating synaptic membrane exocytosis 2 (GST-PDZ, PDZ array IV) (UniProt Q9UQ26).
T7 sequence: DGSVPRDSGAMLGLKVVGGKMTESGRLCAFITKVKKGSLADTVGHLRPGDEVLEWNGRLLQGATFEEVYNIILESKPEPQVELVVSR
Described as above.

Test [12] concerns the target T8, RIL, Reversion-induced LIM protein (GST-PDZ, PDZ array I) (UniProt P50479).
T8 sequence: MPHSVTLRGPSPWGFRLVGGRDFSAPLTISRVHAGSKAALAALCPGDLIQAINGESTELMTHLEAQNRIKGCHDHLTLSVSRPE
The test is described as above.

Test [13] concerns the target CRK-D2, sarcoma virus CT10 oncogene homolog, domain 2 (GST protein, SH3 array) (UniProt P46108). Briefly: peptide or protein array; SH3 Domain Array (Panomics/Affymetrix), 38 GST-SH3 domain proteins spotted in duplicate, probed with His-tagged Ankrd2 (15 ug/ml); both purified.
Test [14] concerns the target Y124, PAK-interacting exchange factor beta (GST protein, SH3 array) (UniProt Q14155). The description is as above.
The target of test [15] is PEXD, Peroxisomal membrane protein PEX13 (GST protein, SH3 array) (UniProt Q92968). The description is as above.
Test [16] concerns the target Cortactin (GST protein, SH3 array) (UniProt Q14247). Described as above.
For test [17], the target named is T9, PLC γ, Phospholipase C gamma-1 (GST protein, SH3 array) (UniProt P19174).
T9 sequence: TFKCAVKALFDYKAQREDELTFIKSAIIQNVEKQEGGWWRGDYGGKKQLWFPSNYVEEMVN
The test is described as above.

Test [18] concerns the target Stam, Signal transducing adaptor molecule (GST protein, SH3 array) (UniProt Q92783). Described as above.

For the substance “His-tagged Ankrd2 protein (from UniProt Q9GZV1 1-360)”, the binding entry in test [1] is given as “binds weakly”; in test [2], “binds”; in test [3], “binds weakly”; in [4] it was “binds weakly”; in test [5], “binds”; in [6] it was “binds weakly”. In addition, the binding result in [7] is listed as “binds weakly”; in [8], “binds weakly”; in test [9], “binds”; in test [10], “binds”; in [11], “binds”; in test [12] it was “binds”. Further, the binding result in [13], in test [14], in test [15], in [16], in test [17] and in test [18] was “binds” each time.
